# Data as given in the supplement of paper PMC6445147.
# Values scatter widely in this assay.
# B1: human tRNA-Pro; a variant is named by its letters at N, in order (parent)
# chain: GGCTCGTTGGTCTAGNGGTATGATTCTCGCTTAGGGTGCGAGAGGTCCCGGGTTCNNATCCCGGACGAGCCC
# Variants of: B1
# Test: tRNA 3' processing efficiency (processed reads / all reads, maximum-likelihood estimate) (fraction); higher = more efficient 3' processing
# Details: HEK293T; construct: no Pol-II promoter ((-)CMV library)
row,Variant,tRNA 3' processing efficiency
1,TCA A14T A20G T59G,0.43
2,TAA A33G,0.96
3,GAA T8C T19C A58C T59C,0.4
4,GAT A14T G15A T19A A58G,0.25
5,TAC G9A G15A A20C,0.17
6,TGA T19G T53G,0.06
7,GAA G15C G17T T19C A58C,0.4
8,ATA A14T A20T,0.29
9,TAA A14T A20C A58G T59A,0.39
10,GGA A14C G15A G17A T19C T53C,0.4
11,GAG G2A C5A A20T,0.62
12,GAA A14C G18C A58G T59A,0.17
13,GAT G15C G51A,0.5
14,GAA G51A A58T,0.33
15,CAA G15C A58T T59C,0.43
16,GTA G15A T19A A20G A58G,0.25
17,GGA G10A G15A,0.33
18,GAA A14T G18A T19A T59A,0.25
19,CTC G51A,0.4
20,GAT G9A A14T G18A A20T,0.25
21,TGA A14T C55G A58G,0.25

row,Variant,tRNA 3' processing efficiency
1,GAA G17T T19C C55T T59G,0.33
2,CAA T8C G15C C55T A58G,0.25
3,GTA G18C G51A,0.5
4,CAA T19G T59C,0.4
5,CGG C55A,0.62
6,GAA G15A A58C T59G,0.25
7,TAA A20G A58C T59G,0.5
8,AGA G9A T19C T59A,0.29
9,TAG G18T A20C,0.5
10,GGA T8C T53G T59G,0.25
11,GTA A14T T19A T59C,0.25
12,GAT G51A A58T,0.43
13,TAA G9A T19A T53A,0.33
14,GAA A14T T19A A20C T59G,0.25
15,GGA G18T A58T T59A,0.14
16,AAT A14G G17T G18T,0.29
17,GAT A14G G15C,0.55
18,AAA T8G G17A G18C T53A,0.17
19,GTA G17T G18C A58T,0.7
20,GCC T8C G15A,0.17
21,TAG T19A T59C,0.5

row,Variant,tRNA 3' processing efficiency
1,GTA T8C A20T T59C,0.25
2,TAC A14T T19A A20C,0.25
3,TTA T13A G15T,0.57
4,AAA G51A T53G,0.4
5,TGG A20T,0.25
6,CGA A14C A20T G22A T53A,0.33
7,GTA G15A G18A T19G,0.25
8,GTA G51A,0.2
9,ATA T8C T19G,0.2
10,TTA A14T A20G A58C,0.57
11,TAG G17T A58G T59G,0.33
12,GGA A14T A20C T53G,0.29
13,AAT T8G G9T,0.55
14,GAC T8A G17C A58T,0.43
15,GTG T19A T59G,0.25
16,GTG T19C A20G A58C,0.29
17,ATA G15T A58C,0.17
18,CCA T19A A58T,0.4
19,GGT T8C G9T A14C,0.56
20,TAA T8C A14G A20G A58T,0.4
21,AAA T8C G9A G15C A58T,0.13

row,Variant,tRNA 3' processing efficiency
1,GGC A14T T53A,0.25
2,GAA T19A A20T T53A A58G,0.43
3,GTG A14G T19A,0.25
4,GAT G2T,0.45
5,CAA A14G T19C T53A,0.5
6,GCC A14T T19A,0.2
7,GTG T19C A20C,0.25
8,GGA A20T G38A T59C,0.57
9,GGA G9A T19A C55T,0.17
10,ATA T8C A58G T59C,0.25
11,GGT T19A T59C,0.2
12,GGA A14C G15C T19A T53A,0.06
13,GAA T8A A14C G15A G18A T19A A20C A58T,0.25
14,CTA T53A T59C,0.5
15,AAA A14T A58T T59A,0.57
16,GTT G9A A14G G17T T59C,0.17
17,GAA G9A A33G,0.67
18,TGG G18C T19C A20T A33T,0.2
19,GGA G17T T53C T54A,0.25
20,GCA A14T G15T G18A,0.33
21,GCA A14C T19A,0.29
